Experimental data: the supplement of paper PMC10849652
The list shows a part of the results.

Sequences of proteins named here, by UniProt entry; tags and fusion partners are left off. A change or cut given only in a name is not applied to a line headed by its entry.
UniProt P42773: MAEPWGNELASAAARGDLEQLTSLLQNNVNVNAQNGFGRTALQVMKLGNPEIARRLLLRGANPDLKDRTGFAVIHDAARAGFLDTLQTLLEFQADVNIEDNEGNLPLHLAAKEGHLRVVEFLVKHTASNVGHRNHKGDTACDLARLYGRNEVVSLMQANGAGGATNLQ
UniProt Q92879: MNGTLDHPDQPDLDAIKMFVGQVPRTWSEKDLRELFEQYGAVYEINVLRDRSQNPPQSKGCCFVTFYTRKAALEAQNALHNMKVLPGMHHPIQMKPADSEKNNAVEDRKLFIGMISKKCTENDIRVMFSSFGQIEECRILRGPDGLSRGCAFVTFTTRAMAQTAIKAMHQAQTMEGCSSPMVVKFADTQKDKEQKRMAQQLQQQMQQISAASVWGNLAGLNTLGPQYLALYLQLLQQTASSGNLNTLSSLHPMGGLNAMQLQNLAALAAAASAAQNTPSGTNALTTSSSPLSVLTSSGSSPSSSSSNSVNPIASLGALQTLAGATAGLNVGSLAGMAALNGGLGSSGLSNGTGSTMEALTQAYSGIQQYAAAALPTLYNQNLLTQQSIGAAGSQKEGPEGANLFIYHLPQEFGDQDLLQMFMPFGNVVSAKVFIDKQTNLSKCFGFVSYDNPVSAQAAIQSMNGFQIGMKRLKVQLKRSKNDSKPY
UniProt Q9C0F1: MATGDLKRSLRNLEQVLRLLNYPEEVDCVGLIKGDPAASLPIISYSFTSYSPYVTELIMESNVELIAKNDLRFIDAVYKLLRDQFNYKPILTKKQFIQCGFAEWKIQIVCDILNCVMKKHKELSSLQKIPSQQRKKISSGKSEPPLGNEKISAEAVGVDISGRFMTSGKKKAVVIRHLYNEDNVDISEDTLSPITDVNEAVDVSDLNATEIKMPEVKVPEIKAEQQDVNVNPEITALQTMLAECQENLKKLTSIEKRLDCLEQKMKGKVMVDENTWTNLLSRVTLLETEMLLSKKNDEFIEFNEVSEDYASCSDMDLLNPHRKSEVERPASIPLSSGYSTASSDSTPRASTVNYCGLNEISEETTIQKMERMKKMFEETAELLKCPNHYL
UniProt O14735: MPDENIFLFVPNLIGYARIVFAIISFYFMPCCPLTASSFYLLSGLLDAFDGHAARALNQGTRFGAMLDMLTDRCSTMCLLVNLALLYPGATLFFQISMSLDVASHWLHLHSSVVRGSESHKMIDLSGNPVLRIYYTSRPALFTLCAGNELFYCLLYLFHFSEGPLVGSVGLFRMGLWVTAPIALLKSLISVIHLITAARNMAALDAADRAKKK
UniProt Q9BUK0: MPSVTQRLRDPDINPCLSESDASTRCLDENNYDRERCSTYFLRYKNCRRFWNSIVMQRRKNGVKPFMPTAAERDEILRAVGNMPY
UniProt O14757: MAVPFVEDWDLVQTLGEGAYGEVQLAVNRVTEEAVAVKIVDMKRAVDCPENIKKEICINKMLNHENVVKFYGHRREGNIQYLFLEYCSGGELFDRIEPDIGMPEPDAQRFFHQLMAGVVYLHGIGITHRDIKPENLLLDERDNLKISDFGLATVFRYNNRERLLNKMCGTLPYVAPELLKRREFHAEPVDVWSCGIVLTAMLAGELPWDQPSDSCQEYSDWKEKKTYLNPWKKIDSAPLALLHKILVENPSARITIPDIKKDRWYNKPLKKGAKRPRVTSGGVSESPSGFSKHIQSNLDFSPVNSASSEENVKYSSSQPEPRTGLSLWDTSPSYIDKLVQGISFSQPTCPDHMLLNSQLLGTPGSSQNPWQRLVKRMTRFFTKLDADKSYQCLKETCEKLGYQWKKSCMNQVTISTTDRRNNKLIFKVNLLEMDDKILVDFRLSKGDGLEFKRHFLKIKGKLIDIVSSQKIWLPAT
UniProt Q13111, whole entry, looked up: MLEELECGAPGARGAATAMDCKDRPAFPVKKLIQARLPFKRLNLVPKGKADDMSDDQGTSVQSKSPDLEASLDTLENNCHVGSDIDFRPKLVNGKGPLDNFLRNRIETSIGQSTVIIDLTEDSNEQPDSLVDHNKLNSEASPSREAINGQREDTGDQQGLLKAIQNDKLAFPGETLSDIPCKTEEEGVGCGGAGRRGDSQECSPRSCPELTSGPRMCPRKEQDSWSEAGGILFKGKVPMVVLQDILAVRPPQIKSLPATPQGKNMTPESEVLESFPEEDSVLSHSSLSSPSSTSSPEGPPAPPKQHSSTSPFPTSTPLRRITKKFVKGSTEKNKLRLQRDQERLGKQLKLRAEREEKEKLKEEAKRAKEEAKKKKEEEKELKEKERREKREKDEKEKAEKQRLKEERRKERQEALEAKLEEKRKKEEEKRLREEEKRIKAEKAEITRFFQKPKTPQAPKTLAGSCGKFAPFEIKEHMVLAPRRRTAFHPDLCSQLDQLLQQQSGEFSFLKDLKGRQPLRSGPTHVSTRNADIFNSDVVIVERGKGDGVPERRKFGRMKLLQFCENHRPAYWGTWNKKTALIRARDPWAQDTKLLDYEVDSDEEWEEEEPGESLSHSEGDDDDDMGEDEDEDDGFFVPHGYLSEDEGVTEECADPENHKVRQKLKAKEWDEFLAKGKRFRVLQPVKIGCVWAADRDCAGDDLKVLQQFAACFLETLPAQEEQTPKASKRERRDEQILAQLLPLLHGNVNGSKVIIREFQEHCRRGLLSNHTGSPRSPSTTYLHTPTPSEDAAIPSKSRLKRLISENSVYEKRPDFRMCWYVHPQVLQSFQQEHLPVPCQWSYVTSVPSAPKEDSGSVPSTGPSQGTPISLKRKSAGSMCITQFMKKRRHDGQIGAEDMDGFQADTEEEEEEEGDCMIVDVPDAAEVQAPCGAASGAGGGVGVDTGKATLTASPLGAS
UniProt Q9Y5S2: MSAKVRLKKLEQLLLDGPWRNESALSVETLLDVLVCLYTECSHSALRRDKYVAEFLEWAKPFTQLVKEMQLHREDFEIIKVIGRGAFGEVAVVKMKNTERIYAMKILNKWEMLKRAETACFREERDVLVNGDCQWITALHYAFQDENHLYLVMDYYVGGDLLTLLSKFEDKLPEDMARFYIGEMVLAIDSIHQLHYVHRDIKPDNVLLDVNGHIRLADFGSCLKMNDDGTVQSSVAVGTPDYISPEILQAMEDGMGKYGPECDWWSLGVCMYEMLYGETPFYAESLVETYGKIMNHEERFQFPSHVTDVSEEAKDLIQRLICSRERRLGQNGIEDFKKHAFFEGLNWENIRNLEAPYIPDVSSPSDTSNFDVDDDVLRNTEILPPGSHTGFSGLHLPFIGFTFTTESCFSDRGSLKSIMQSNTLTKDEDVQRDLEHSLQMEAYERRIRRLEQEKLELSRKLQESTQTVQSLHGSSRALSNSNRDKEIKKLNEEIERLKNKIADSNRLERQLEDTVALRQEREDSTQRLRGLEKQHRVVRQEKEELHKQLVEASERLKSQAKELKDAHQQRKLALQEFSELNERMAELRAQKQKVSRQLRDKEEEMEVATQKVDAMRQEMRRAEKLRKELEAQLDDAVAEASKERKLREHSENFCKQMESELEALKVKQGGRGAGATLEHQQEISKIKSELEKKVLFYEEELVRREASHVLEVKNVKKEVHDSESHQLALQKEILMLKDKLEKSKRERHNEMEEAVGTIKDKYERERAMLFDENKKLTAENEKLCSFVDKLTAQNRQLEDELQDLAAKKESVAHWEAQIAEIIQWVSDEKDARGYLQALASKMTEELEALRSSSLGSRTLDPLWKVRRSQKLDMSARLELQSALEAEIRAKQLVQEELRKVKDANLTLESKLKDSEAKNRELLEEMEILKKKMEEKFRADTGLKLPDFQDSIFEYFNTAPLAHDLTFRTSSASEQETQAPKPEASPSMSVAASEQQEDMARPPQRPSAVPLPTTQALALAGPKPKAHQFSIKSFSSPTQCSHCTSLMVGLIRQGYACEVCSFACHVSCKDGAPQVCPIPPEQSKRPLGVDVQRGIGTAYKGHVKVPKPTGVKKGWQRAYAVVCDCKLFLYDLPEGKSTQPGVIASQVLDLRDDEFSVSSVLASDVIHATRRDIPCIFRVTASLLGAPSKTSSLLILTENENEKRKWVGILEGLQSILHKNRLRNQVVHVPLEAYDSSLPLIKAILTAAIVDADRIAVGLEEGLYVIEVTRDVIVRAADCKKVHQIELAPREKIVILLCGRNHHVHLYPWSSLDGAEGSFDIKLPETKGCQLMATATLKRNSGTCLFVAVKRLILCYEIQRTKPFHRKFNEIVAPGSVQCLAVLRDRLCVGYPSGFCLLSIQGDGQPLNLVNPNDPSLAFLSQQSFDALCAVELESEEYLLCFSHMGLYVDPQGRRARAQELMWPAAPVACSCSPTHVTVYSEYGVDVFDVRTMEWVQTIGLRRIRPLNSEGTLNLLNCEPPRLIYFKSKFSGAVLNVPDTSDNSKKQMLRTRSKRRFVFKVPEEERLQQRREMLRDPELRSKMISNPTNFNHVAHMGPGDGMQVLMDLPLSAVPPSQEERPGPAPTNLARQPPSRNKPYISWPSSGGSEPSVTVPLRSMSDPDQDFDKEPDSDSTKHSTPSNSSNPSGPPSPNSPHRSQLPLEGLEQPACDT
UniProt P46527, whole entry, looked up: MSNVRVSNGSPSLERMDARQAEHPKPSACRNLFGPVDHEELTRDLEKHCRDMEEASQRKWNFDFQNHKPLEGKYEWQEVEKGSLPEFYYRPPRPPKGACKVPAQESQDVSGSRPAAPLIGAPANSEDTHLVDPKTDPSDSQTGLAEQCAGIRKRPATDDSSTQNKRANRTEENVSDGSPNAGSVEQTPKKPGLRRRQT
UniProt Q9Y5P4: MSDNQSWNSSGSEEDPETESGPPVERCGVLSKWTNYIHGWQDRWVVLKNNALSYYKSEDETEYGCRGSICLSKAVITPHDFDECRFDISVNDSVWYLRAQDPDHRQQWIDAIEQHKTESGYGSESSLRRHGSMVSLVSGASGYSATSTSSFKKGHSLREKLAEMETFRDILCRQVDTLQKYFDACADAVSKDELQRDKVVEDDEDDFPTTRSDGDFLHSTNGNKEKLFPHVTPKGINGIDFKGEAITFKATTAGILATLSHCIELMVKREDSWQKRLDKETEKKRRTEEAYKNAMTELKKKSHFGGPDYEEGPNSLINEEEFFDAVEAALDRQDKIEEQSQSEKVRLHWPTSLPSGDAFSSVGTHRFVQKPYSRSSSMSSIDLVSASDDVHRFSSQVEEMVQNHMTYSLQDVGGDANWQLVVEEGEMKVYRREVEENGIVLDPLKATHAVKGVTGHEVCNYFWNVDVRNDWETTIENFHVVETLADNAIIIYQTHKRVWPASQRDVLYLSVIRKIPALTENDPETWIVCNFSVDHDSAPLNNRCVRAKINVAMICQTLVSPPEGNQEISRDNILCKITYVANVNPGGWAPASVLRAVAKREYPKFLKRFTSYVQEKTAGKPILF
UniProt Q13112, whole entry, looked up: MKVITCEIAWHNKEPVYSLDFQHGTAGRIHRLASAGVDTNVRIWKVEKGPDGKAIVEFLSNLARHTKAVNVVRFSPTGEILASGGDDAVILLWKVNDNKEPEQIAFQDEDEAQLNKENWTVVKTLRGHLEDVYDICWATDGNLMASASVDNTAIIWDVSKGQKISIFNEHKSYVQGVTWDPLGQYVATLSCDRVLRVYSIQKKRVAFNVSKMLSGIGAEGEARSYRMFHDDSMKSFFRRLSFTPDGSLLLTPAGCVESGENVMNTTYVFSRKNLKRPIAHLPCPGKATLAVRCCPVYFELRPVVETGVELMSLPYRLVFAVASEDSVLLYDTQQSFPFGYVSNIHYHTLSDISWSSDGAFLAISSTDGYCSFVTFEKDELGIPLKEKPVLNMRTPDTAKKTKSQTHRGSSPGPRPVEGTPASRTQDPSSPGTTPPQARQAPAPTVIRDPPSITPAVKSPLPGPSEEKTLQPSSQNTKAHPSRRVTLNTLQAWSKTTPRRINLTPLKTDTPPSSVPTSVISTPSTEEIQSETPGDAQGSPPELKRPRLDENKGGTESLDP
UniProt Q8N4Q1: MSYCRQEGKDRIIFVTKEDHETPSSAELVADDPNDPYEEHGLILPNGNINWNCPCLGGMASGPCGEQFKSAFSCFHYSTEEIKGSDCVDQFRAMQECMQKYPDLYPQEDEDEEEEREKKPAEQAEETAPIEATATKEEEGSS
UniProt Q9BRQ6: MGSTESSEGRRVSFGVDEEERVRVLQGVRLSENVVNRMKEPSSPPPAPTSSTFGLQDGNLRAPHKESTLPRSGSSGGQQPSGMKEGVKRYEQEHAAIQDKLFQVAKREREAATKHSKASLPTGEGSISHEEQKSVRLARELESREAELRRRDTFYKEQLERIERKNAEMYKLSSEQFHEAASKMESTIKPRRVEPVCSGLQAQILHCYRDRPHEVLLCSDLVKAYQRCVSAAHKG
UniProt Q00535, whole entry, looked up: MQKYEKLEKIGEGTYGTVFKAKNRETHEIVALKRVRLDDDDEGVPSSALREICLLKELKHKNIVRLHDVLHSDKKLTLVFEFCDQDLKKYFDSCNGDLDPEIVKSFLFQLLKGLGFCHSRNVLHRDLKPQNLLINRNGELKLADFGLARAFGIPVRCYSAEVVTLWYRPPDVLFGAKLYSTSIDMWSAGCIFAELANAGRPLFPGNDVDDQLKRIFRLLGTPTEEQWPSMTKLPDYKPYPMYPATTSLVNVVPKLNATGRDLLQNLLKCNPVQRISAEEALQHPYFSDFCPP

How the values were obtained:
Assay in all cases: log2 fold change, soluble protein after heating vs DMSO (PISA); higher = thermal stabilisation; K562 cells, 10 uM, 30 min; active = over 0.2 and 3.5 SD of the protein, either way, in both replicates (recomputed)
[1] = compound: Cc1ccc(NC(=O)c2ccc(CN3CC[C@H](N(C)C)C3)c(C(F)(F)F)c2)cc1Nc1nccc(-c2cncnc2)n1 [bafetinib]
Summary of the method: (§1)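 Thermal stability values are relative to control samples and come from duplicates. They are expressed as log2 fold changes. For measurement, K562 cells (2×10^6 cells/mL) received 10 μM compound for 30 min, and aliquots were heated for 3 min over 48°C-58°C, pooled, and extracted at 4°C in PBS with 0.5% NP-40. Soluble protein, the supernatant after 21,000xg for 90 min, was quantified by TMTpro 16plex LC-MS/MS with equalised channel sums.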

[2] = compound: Cc1cccc(CC(=O)N2CCc3c2ccc(-c2cn(C)c4ncnc(N)c24)c3F)n1
Summary of the method: as §1

[3] = compound: Cc1cn(-c2cc(NC(=O)c3ccc(C)c(Nc4nccc(-c5cccnc5)n4)c3)cc(C(F)(F)F)c2)cn1 [nilotinib]
Summary of the method: as §1

[4] = compound: Cc1nc(Nc2n[nH]c3c2CN(C(=O)N[C@H](CN(C)C)c2ccccc2)C3(C)C)c2sccc2n1
Summary of the method: as §1

[5] = compound: Cc1nc(Nc2ncc(C(=O)Nc3c(C)cccc3Cl)s2)cc(N2CCN(CCO)CC2)n1 [dasatinib]
Summary of the method: as §1

[6] = compound: Cc1ncc(-c2ccnc(Nc3ccc(S(C)(=O)=O)cc3)n2)n1C(C)C
Summary of the method: as §1

[7] = compound: Cn1cc(-c2ccc3c(c2)CCN3C(=O)Cc2cccc(C(F)(F)F)c2)c2c(N)ncnc21
Summary of the method: as §1

[8] = compound: Cn1cc(-c2ccc3nnc(C(F)(F)c4ccc5ncccc5c4)n3n2)cn1
Summary of the method: as §1

[9] = compound: Cn1cncc1[C@@](N)(c1ccc(Cl)cc1)c1ccc2c(c1)c(-c1cccc(Cl)c1)cc(=O)n2C [tipifarnib]
Summary of the method: as §1

[10] = compound: FC(F)(F)c1ccc(/C=C/c2nc(COc3ccc(CCCCn4ccnn4)cc3)co2)cc1 [mubritinib]
Summary of the method: as §1

[11] = compound: NC(=O)c1cnc(N[C@@H]2CCCC[C@@H]2N)nc1Nc1cccc(-n2nccn2)c1
Summary of the method: as §1

[12] = compound: NC1(c2ccc(-c3nc4ccn5c(=O)[nH]nc5c4cc3-c3ccccc3)cc2)CCC1
Summary of the method: as §1

[13] = compound: NCC(=O)Nc1ccc(-n2nc(C(F)(F)F)cc2-c2ccc3c(ccc4ccccc43)c2)cc1
Summary of the method: as §1

[14] = compound: O=C(CCCCCCC(=O)Nc1ccccc1)NO [vorinostat]
Summary of the method: as §1

[15] = compound: O=C(CCCCCCNC(=O)c1cnc(N(c2ccccc2)c2ccccc2Cl)nc1)NO [citarinostat]
Summary of the method: as §1

[16] = compound: O=C(O)c1ccc2c(c1)nc(Nc1cccc(Cl)c1)c1ccncc12 [silmitasertib]
Summary of the method: as §1

[17] = compound: O=C1NC(=O)C(c2cnc3ccccn23)=C1c1cn2c3c(cc(F)cc13)CN(C(=O)N1CCCCC1)CC2
Summary of the method: as §1

[18] = compound: c1cc(OCCN2CCCCC2)cc(-c2n[nH]c3ccc(-c4nnc[nH]4)cc23)c1
Summary of the method: as §1

[19] = compound: NC(=O)Nc1cc(-c2cccc(F)c2)sc1C(=O)N[C@H]1CCCNC1
Summary of the method: as §1

[20] = compound: Nc1ccccc1NC(=O)c1ccc(CNC(=O)OCc2cccnc2)cc1 [entinostat]
Summary of the method: as §1

Target	log2 fold change [1]	log2 fold change [2]	log2 fold change [3]	log2 fold change [4]	log2 fold change [5]	log2 fold change [6]	log2 fold change [7]	log2 fold change [8]	log2 fold change [9]	log2 fold change [10]	log2 fold change [11]	log2 fold change [12]	log2 fold change [13]	log2 fold change [14]	log2 fold change [15]	log2 fold change [16]	log2 fold change [17]	log2 fold change [18]	log2 fold change [19]	log2 fold change [20]
CEMIP2 (UniProt Q9UHN6)	inactive: -0.018	inactive: 0.002	inactive: 0.069	inactive: 0.083	inactive: -0.044	inactive: 0.031	inactive: 0.03	inactive: 0.179	inactive: 0.033	inactive: -0.024	inactive: 0.072	inactive: -0.243	inactive: -0.072	inactive: 0.038	inactive: 0.124	inactive: 0.057	inactive: 0.034	inactive: -0.078	–	–
CDKN2C (UniProt P42773)	inactive: -0.02	inactive: -0.105	inactive: 0.024	inactive: -0.006	inactive: 0.051	inactive: -0.021	inactive: 0.122	inactive: 0.252	inactive: 0.006	inactive: 0.023	inactive: 0.041	inactive: -0.004	inactive: -0.024	inactive: -0.179	inactive: 0.051	inactive: -0.004	–	inactive: -0.001	inactive: 0.07	inactive: 0.015
CELF1 isoform 4 (UniProt Q92879)	inactive: 0.031	inactive: 0.179	inactive: -0.041	inactive: -0.346	inactive: -0.233	inactive: 0.133	inactive: 0.066	inactive: 0.008	inactive: -0.107	inactive: -0.075	inactive: 0.02	inactive: -0.097	inactive: -0.051	inactive: 0.03	inactive: 0.072	inactive: 0.057	inactive: 0.077	inactive: -0.115	inactive: 0.051	inactive: 0.113
CEP44 (UniProt Q9C0F1)	inactive: -0.209	inactive: -0.08	inactive: -0.043	inactive: -0.129	inactive: 0.046	inactive: 0.151	inactive: 0.111	inactive: -0.046	inactive: -0.042	inactive: -0.158	inactive: -0.066	inactive: -0.036	inactive: 0.036	inactive: 0.071	inactive: 0.084	inactive: 0.029	inactive: 0.023	inactive: 0.205	inactive: -0.064	inactive: 0.026
CDIPT (UniProt O14735)	inactive: -0.129	inactive: -0.149	inactive: 0.028	inactive: -0.019	inactive: -0.029	inactive: 0.003	inactive: -0.024	inactive: 0.07	inactive: 0.152	inactive: 0.056	inactive: 0.132	inactive: 0.024	inactive: 0.051	inactive: 0.14	inactive: -0.033	inactive: 0.038	inactive: -0.016	inactive: -0.052	inactive: -0.106	inactive: 0.111
CHCHD7 isoform 4 (UniProt Q9BUK0)	inactive: -0.101	inactive: 0.122	inactive: -0.092	inactive: -0.005	inactive: 0.044	inactive: -0.064	inactive: 0.028	inactive: -0.016	inactive: -0.005	inactive: -0.02	inactive: 0.006	inactive: 0.023	inactive: 0.104	inactive: -0.063	inactive: 0.047	inactive: -0.068	–	inactive: -0.101	inactive: -0.019	inactive: 0.241
CHEK1 (UniProt O14757)	inactive: -0.053	inactive: 0.02	inactive: -0.05	active: -1.17	inactive: -0.064	inactive: 0.002	inactive: 0.021	inactive: -0.022	inactive: 0.005	inactive: 0.048	inactive: -0.225	inactive: -0.209	inactive: -0.032	inactive: 0.037	inactive: 0.094	inactive: -0.011	inactive: -0.064	active: -0.276	active: 0.338	inactive: 0.02
CHAF1A (UniProt Q13111)	inactive: -0.154	inactive: -0.04	inactive: 0.053	inactive: 0.047	inactive: 0.016	inactive: -0.074	inactive: 0.006	inactive: 0.002	inactive: 0.015	inactive: 0.034	inactive: 0.046	inactive: 0.036	–	inactive: 0.121	inactive: 0.005	inactive: -0.019	inactive: -0.167	active: -0.439	inactive: 0.087	inactive: -0.141
CDC42BPB (UniProt Q9Y5S2)	inactive: 0.22	inactive: -0.034	inactive: 0.062	inactive: -0.118	inactive: -0.029	inactive: 0.106	inactive: -0.054	inactive: -0.017	inactive: 0.094	inactive: 0.177	inactive: 0.054	inactive: -0.254	inactive: -0.012	inactive: 0.06	inactive: 0.085	inactive: -0.087	inactive: -0.057	inactive: -0.201	inactive: -0.205	inactive: 0.155
CDKN1B (UniProt P46527)	inactive: -0.001	inactive: -0.05	inactive: 0.013	inactive: -0.097	inactive: 0.004	inactive: 0.149	inactive: 0.108	inactive: 0.04	inactive: 0.009	inactive: 0.114	inactive: 0.178	inactive: 0.017	inactive: -0.177	inactive: -0.01	–	inactive: -0.072	inactive: -0.01	–	inactive: -0.154	inactive: 0.046
CERT isoform 3 (UniProt Q9Y5P4)	inactive: 0.032	inactive: -0.08	inactive: 0.193	active: -0.397	inactive: 0.019	inactive: -0.11	inactive: 0.109	inactive: 0.021	inactive: 0.111	inactive: 0.117	inactive: -0.103	inactive: -0.101	inactive: -0.045	inactive: -0.025	inactive: 0.065	inactive: 0.034	inactive: 0	active: -0.418	active: -0.323	inactive: -0.008
CHAF1B (UniProt Q13112)	inactive: -0.046	inactive: -0.061	inactive: 0.002	inactive: 0.005	inactive: 0.019	inactive: -0.002	inactive: 0	inactive: 0.024	inactive: 0.015	inactive: 0.013	inactive: -0.042	inactive: -0.004	inactive: -0.02	inactive: -0.018	inactive: -0.001	inactive: 0.011	inactive: -0.017	inactive: -0.026	inactive: -0.009	inactive: -0.033
CHCHD4 isoform 2 (UniProt Q8N4Q1)	inactive: 0	active: 0.764	inactive: -0.054	inactive: -0.015	inactive: -0.121	inactive: -0.039	inactive: -0.185	inactive: -0.059	inactive: -0.208	inactive: 0	inactive: 0.06	inactive: -0.007	inactive: 0.084	inactive: 0.442	inactive: -0.013	inactive: 0.038	inactive: 0.123	inactive: 0.027	inactive: 0.335	inactive: 0.339
CHCHD6 (UniProt Q9BRQ6)	inactive: -0.167	inactive: -0.042	inactive: -0.086	inactive: 0.026	inactive: 0.101	inactive: 0.003	inactive: 0.097	inactive: 0.083	inactive: -0.057	inactive: 0.009	inactive: -0.185	inactive: -0.02	inactive: -0.019	inactive: 0.001	–	inactive: -0.033	inactive: -0.128	–	inactive: 0.076	inactive: -0.003
CDK5 (UniProt Q00535)	inactive: -0.091	inactive: 0.035	inactive: -0.055	inactive: -0.142	inactive: -0.078	inactive: -0.034	inactive: -0.033	inactive: -0.031	inactive: -0.054	inactive: -0.103	inactive: -0.01	inactive: -0.065	inactive: -0.082	inactive: 0.007	inactive: 0.06	inactive: 0.016	inactive: -0.1	inactive: -0.05	inactive: -0.045	inactive: 0.016
CDK9 isoform 2 (UniProt P50750)	inactive: 0.039	inactive: 0.108	inactive: -0.045	inactive: -0.059	inactive: -0.011	inactive: 0.22	inactive: -0.091	inactive: -0.013	inactive: 0.068	inactive: -0.067	inactive: -0.038	inactive: -0.057	inactive: 0.22	inactive: 0.102	inactive: -0.002	inactive: -0.015	inactive: 0.152	inactive: -0.084	inactive: -0.05	inactive: 0.005

Fetched one by one from above, 2 records:
Target	log2 fold change [1]	log2 fold change [2]	log2 fold change [3]	log2 fold change [4]	log2 fold change [5]	log2 fold change [6]	log2 fold change [7]	log2 fold change [8]	log2 fold change [9]	log2 fold change [10]	log2 fold change [11]	log2 fold change [12]	log2 fold change [13]	log2 fold change [14]	log2 fold change [15]	log2 fold change [16]	log2 fold change [17]	log2 fold change [18]	log2 fold change [19]	log2 fold change [20]
CHAF1B (UniProt Q13112)	inactive: -0.046	inactive: -0.061	inactive: 0.002	inactive: 0.005	inactive: 0.019	inactive: -0.002	inactive: 0	inactive: 0.024	inactive: 0.015	inactive: 0.013	inactive: -0.042	inactive: -0.004	inactive: -0.02	inactive: -0.018	inactive: -0.001	inactive: 0.011	inactive: -0.017	inactive: -0.026	inactive: -0.009	inactive: -0.033
CDKN1B (UniProt P46527)	inactive: -0.001	inactive: -0.05	inactive: 0.013	inactive: -0.097	inactive: 0.004	inactive: 0.149	inactive: 0.108	inactive: 0.04	inactive: 0.009	inactive: 0.114	inactive: 0.178	inactive: 0.017	inactive: -0.177	inactive: -0.01	–	inactive: -0.072	inactive: -0.01	–	inactive: -0.154	inactive: 0.046
